Laboratory results from PubChem BioAssay AID1439 (NMMLSC, 2008).
About 770 (0.35%) of roughly 220,000 compounds were called active. The shares of active, inactive and inconclusive entries below differ from those in the screen. Rule as the data show it: active = binding response below about 49% or above about 150%; inconclusive = no clear call, values can overlap the other calls; inactive = in between.

By UniProt entry, the sequences of proteins in these tests, tags left out.
UniProt P09471, whole entry, looked up: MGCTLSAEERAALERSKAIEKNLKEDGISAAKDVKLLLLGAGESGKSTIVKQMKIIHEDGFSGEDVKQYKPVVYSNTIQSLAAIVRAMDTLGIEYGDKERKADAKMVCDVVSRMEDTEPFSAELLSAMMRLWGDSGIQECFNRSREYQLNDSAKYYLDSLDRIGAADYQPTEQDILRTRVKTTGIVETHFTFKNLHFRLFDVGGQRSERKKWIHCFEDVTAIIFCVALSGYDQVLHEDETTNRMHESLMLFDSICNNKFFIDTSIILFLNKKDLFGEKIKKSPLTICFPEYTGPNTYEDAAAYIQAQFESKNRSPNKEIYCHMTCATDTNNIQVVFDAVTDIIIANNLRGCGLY

target: Guanine nucleotide-binding protein G(o) subunit alpha (Homo sapiens) (UniProt P09471); assay: RGS7-Galphao binding modulators, primary screen, biochemical, multiplexed bead flow cytometry (AID 1439); conditions: at 10 µM, actives lie on both sides;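 also: fluorescent Galphao held in activated GDP-AlF4 state binding bead-coupled RGS7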

Row | Compound | binding response (% of control)
1 | O=[N+]([O-])c1ccc(S(=O)(=O)N(CCCN2CCOCC2)Cc2cccs2)cc1 | inconclusive: 86.3%
2 | CSc1ccc(CN(C)CC(=O)NCc2ccc(F)cc2)cc1 | inconclusive: 109%
3 | CCC(=O)N1c2ccccc2C(N(C(=O)CC)c2ccccc2)CC1C (stereo not drawn) | inconclusive: 95.2%
4 | COC(=O)c1ccc(C(=O)OC)c(NC(=S)N2CCC(C(N)=O)CC2)c1 | inconclusive: 109%
5 | O=C(O)CCSC(=S)N1CCOCC1 | inconclusive: 65.2%
6 | O=C(CCC(=O)N1CCOCC1)c1ccc(F)cc1 | inactive: 95.2%
7 | Nc1nnnn1CC(=O)N/N=C/c1cccs1 | inconclusive: 121%
8 | Cc1cc(NC(=O)c2ccc(Cl)c([N+](=O)[O-])c2)no1 | inconclusive: 97.4%
9 | COCCN(CC(=O)Oc1ccccc1P(=O)(OC)OC)Cc1ccccc1 | inconclusive: 107%
10 | COc1ccc(Cl)cc1NC(=S)N(CCN1CCOCC1)C1CCN(C(C)=O)CC1 | inactive: 105%
11 | CSc1ccc(CNCC(O)c2ccccc2)cc1 (stereo not drawn) | inconclusive: 158%
12 | CCOC(=O)c1ccc(C(=O)OCC)c(NC(=S)Nc2ccc([N+](=O)[O-])cc2OC)c1 | inactive: 100%
13 | COc1cccc(C(=O)Nc2c[nH]c(=O)[nH]c2=O)c1 | inconclusive: 123%
14 | O=C(O)CN(c1ccccc1[N+](=O)[O-])S(=O)(=O)c1ccccc1 | inactive: 117%
15 | Cc1cc(C)c2sc(N(CCCN(C)C)C(=O)CN3C(=O)c4ccccc4C3=O)nc2c1 | inconclusive: 109%
16 | Cc1cc(C)c2c(N)c(C(=O)c3ccc(Br)cc3)oc2n1 | inconclusive: 97.2%
17 | CCOc1ccc(C(=O)NCC(=O)OCc2c(C)noc2C)cc1OCC | inconclusive: 98%
18 | CCOC(=O)N1CCN(c2c(N3CCN(C(=O)OCC)CC3)c(=O)c2=O)CC1 | inconclusive: 168%
19 | C1CCC(Nc2nc3nonc3nc2N2CCSCC2)C1 | inactive: 112%
20 | CCOC(=O)C(=Cc1ccc(F)cc1)C(=O)OCC | inactive: 102%

Row | Compound | binding response (% of control)
21 | Cc1cc(-c2cc(-c3ccc(Cl)cc3)on2)nc(NCC2CC2)n1 | inconclusive: 110%
22 | O=C(NNC(=O)C1C2CCC(C2)C1C(=O)O)c1cccc(Cl)c1 (stereo not drawn) | inconclusive: 81.9%
23 | Cc1ccc(S(=O)(=O)NN)c(C)c1N1CCCC1=O | inconclusive: -20%
24 | O=C1OCCN/C1=C\C(=O)c1ccc(Cl)cc1 | inconclusive: 66.4%
25 | O=C(NNC(=S)Nc1ccc(F)c(Cl)c1)c1ccccc1Br | inconclusive: 110%
26 | CCOC(=O)NC(=O)/C(N=Nc1cc(C)cc(C)c1)=C(\C)O | inconclusive: 106%
27 | Cc1ccc(C2N(c3ccc(Cl)cc3)C(=O)N3CCCN23)cc1 (stereo not drawn) | inconclusive: 172%
28 | Cc1ccc(CN2CCN(/N=C/c3cc(Br)cc(Br)c3O)CC2)cc1 | inactive: 105%
29 | CC(C)CCNC(=O)C1CCC(CNc2c(N3CCC(C)CC3)c(=O)c2=O)CC1 (stereo not drawn) | inconclusive: 103%
30 | COc1ccc(N(CC(=O)Nc2nccs2)S(=O)(=O)c2c(C)[nH]c(=O)[nH]c2=O)cc1 | inactive: 107%
31 | O=C(NCCc1ccc(Cl)cc1)c1ccc(CNc2c(N3CCOCC3)c(=O)c2=O)cc1 | inconclusive: 73.2%
32 | CCOc1ncccc1C(=O)Nc1ccc(S(=O)(=O)Nc2nccs2)cc1 | inconclusive: 123%
33 | COc1ccc(N2CC(O)=C(c3nc(-c4ccc(Br)cc4)cs3)C2=N)cc1 | inconclusive: 98.5%
34 | CC1Cc2cc(/C(O)=C3/C(=O)C(=O)N(CCN4CCOCC4)C3c3cccc(O)c3)ccc2O1 (stereo not drawn) | inactive: 92.6%
35 | O=C(NC1CC1)C1CCN(C2CCN(C(=O)CSc3ccccc3)CC2)CC1 | inconclusive: 93.8%
36 | N#Cc1ccccc1Sc1ccccc1C(=O)OCC(N)=O | inconclusive: 112%
37 | CCOc1ccc(Nc2c3ccccc3nc3ccccc23)cc1 | inconclusive: 103%
38 | Cc1cc(C)[n+]2n1C(=O)C(c1ccccc1)=C2[O-] | inconclusive: 107%
39 | O=C(COc1ccc2c(c1)OCO2)Nc1ccccc1C(F)(F)F | inactive: 98.4%
40 | O=C(c1c(F)cccc1F)N1CCN=C1SCc1ccccc1 | inconclusive: 112%

Some of these compounds in order of length of the SMILES, rising:
Row | Compound | binding response (% of control)
24 | O=C1OCCN/C1=C\C(=O)c1ccc(Cl)cc1 | inconclusive: 66.4%
20 | CCOC(=O)C(=Cc1ccc(F)cc1)C(=O)OCC | inactive: 102%
36 | N#Cc1ccccc1Sc1ccccc1C(=O)OCC(N)=O | inconclusive: 112%
23 | Cc1ccc(S(=O)(=O)NN)c(C)c1N1CCCC1=O | inconclusive: -20%
40 | O=C(c1c(F)cccc1F)N1CCN=C1SCc1ccccc1 | inconclusive: 112%
25 | O=C(NNC(=S)Nc1ccc(F)c(Cl)c1)c1ccccc1Br | inconclusive: 110%
39 | O=C(COc1ccc2c(c1)OCO2)Nc1ccccc1C(F)(F)F | inactive: 98.4%
27 | Cc1ccc(C2N(c3ccc(Cl)cc3)C(=O)N3CCCN23)cc1 (stereo not drawn) | inconclusive: 172%
26 | CCOC(=O)NC(=O)/C(N=Nc1cc(C)cc(C)c1)=C(\C)O | inconclusive: 106%
22 | O=C(NNC(=O)C1C2CCC(C2)C1C(=O)O)c1cccc(Cl)c1 (stereo not drawn) | inconclusive: 81.9%
32 | CCOc1ncccc1C(=O)Nc1ccc(S(=O)(=O)Nc2nccs2)cc1 | inconclusive: 123%
35 | O=C(NC1CC1)C1CCN(C2CCN(C(=O)CSc3ccccc3)CC2)CC1 | inconclusive: 93.8%
33 | COc1ccc(N2CC(O)=C(c3nc(-c4ccc(Br)cc4)cs3)C2=N)cc1 | inconclusive: 98.5%
29 | CC(C)CCNC(=O)C1CCC(CNc2c(N3CCC(C)CC3)c(=O)c2=O)CC1 (stereo not drawn) | inconclusive: 103%
31 | O=C(NCCc1ccc(Cl)cc1)c1ccc(CNc2c(N3CCOCC3)c(=O)c2=O)cc1 | inconclusive: 73.2%
30 | COc1ccc(N(CC(=O)Nc2nccs2)S(=O)(=O)c2c(C)[nH]c(=O)[nH]c2=O)cc1 | inactive: 107%

Further structures:

Row | Compound | binding response (% of control)
41 | Cc1ccc(-c2cc(C(F)(F)F)n3ncc(C(=O)N4CCCCC4c4cccnc4)c3n2)cc1 (stereo not drawn) | inactive: 100%
42 | CCN(CC)S(=O)(=O)c1ccc(N2CCOCC2)c(NS(=O)(=O)c2ccc(OC)cc2)c1 | inconclusive: 113%
43 | COC(C[C@@H](O)CC(=O)COCc1ccccc1)OC | inconclusive: 98%
44 | CC(C)(C)C1CCc2c(sc3nc(SCC(=O)O)nc(N)c23)C1 (stereo not drawn) | inconclusive: 100%
45 | C=CCN(c1ccccc1C(=O)NCC(=O)O)S(=O)(=O)c1ccccc1C | inconclusive: 106%
46 | C=CCc1cccc(/C=N/NC(=O)c2ccccc2OC)c1O | inactive: 97.2%
47 | CC1CCCC(NC(=O)COC(=O)[C@@H](NC(=O)c2ccco2)C(C)C)C1C (stereo partly drawn) | inactive: 99.8%
48 | Cc1ccc(/C=N/N2CCN(Cc3ccc(C)cc3)CC2)cc1 | inconclusive: 94.5%
49 | O=C(c1cc(=O)[nH]c2ccccc12)N1CCN(c2ccccc2)CC1 | inconclusive: 102%
50 | O=C(Nc1ccccc1Cl)c1ccccc1S(=O)(=O)c1ccccc1[N+](=O)[O-] | inactive: 90.2%
51 | CC(C)[n+]1ccn(C2=C([O-])c3ccccc3C(=O)/C2=N\S(=O)(=O)c2ccccc2)c1 | inconclusive: 61.4%
52 | O=C1CN(C(=O)c2ccc(Cl)c(S(=O)(=O)N3CCc4ccccc43)c2)c2ccccc2N1 | inconclusive: 88.5%
53 | C/C=C/C(=O)OCC(=O)Nc1cccc(F)c1 | inconclusive: 84%
54 | NC1=NC[C@@H](Cc2ccc(O)cc2)N1CCc1cccc2ccccc12 | inconclusive: 106%
55 | Cc1c(CN2CCC(C)CC2)c(=O)n(-c2ccccc2)n1C | inactive: 97%
56 | Cc1csc2c(N3CCC(C(=O)O)CC3)ncnc12 | inconclusive: 129%
57 | COC(=O)C1=C(Nc2ccccc2NC(=O)c2ccccc2C(=O)O)CSC1 | inconclusive: 110%
58 | CCOC(=O)N1CCN(Cc2cc(=O)oc3ccc(Cl)cc23)CC1 | inactive: 102%
